Values from PubChem BioAssay AID652272 (Drosophila RNAi Screening Center, 2013)
In all, the deposit lists about 21,000 reagents; below is a random part of those that have a named target and a result. Over the whole deposit, 503 (2.4%) were called active. 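Raw plate light values, not normalised; calls rest on replicate z-scores that were not deposited; hits include reporter decreases as well as increases.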 Names joined by + are all predicted targets of the reagent. Not given: the amount of reagent, the time to read-out.

Assay: 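Finding fly genes that regulate Hedgehog signal transduction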 (primary screen)
Cells: Drosophila clone 8 (Cl8) cells
Reagents: long dsRNA against Drosophila genes
Detection: 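Firefly light from a Hedgehog-responsive ptc promoter reporter and Renilla reference light, both read on a plate reader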
Reading the numbers: firefly Hh reporter signal: higher = more ptc reporter light; Renilla reference signal: higher = more Renilla control light
Active means: 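Hit when the z-score averaged over two replicates is under -2 or over +3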
Meaning of the calls: active = hit: reporter lowered or raised; inactive = not a hit

The first 5 records, ahead of the listing:
predicted target | dsRNA | firefly Hh reporter signal, replicate 1 | firefly Hh reporter signal, replicate 2 | firefly Hh reporter signal, replicate 3 | Renilla reference signal, replicate 1 | Renilla reference signal, replicate 2 | activity call
Tsp97E | DRSC16019 | 1.16e5 | 72080 | – | 2971 | 2033 | inactive
CG15615 | DRSC06568 | 47174 | 44245 | – | 1120 | 3218 | inactive
su(sable) | DRSC18839 | 60920 | 1.35e5 | – | 3739 | 7981 | inactive
bam | DRSC16907 | 6.17e5 | 1.13e5 | – | 35250 | 3558 | inactive
mRpL9 | DRSC15678 | 58637 | 85079 | – | 1418 | 1810 | inactive

Results, from the start:
predicted target | dsRNA | firefly Hh reporter signal, replicate 1 | firefly Hh reporter signal, replicate 2 | firefly Hh reporter signal, replicate 3 | Renilla reference signal, replicate 1 | Renilla reference signal, replicate 2 | activity call
Tsp97E | DRSC16019 | 1.16e5 | 72080 | – | 2971 | 2033 | inactive
CG15615 | DRSC06568 | 47174 | 44245 | – | 1120 | 3218 | inactive
su(sable) | DRSC18839 | 60920 | 1.35e5 | – | 3739 | 7981 | inactive
bam | DRSC16907 | 6.17e5 | 1.13e5 | – | 35250 | 3558 | inactive
mRpL9 | DRSC15678 | 58637 | 85079 | – | 1418 | 1810 | inactive
sloth2 + sloth1 | DRSC17922 | 93415 | 2.74e5 | – | 3413 | 9664 | inactive
sloth2 + sloth1 | DRSC17923 | 1.04e5 | 3.67e5 | – | 3603 | 12864 | inactive
ssp2 | DRSC11052 | 1.05e5 | 38509 | – | 3792 | 1542 | inactive
Tsp29Fa | DRSC03232 | 87587 | 56672 | – | 2642 | 5721 | inactive
Pk34A | DRSC03398 | 1.57e5 | 58443 | – | 3888 | 5608 | inactive
CG33155 + mRpL53 | DRSC05461 | 1.17e5 | 2.67e5 | – | 8056 | 10897 | inactive
Dbp45A | DRSC07395 | 87073 | 44373 | – | 3376 | 1257 | inactive
CG11085 | DRSC19374 | 1.35e5 | 3.69e5 | – | 4049 | 12501 | inactive
U2af50 | DRSC20297 | 1.01e5 | 73574 | – | 1622 | 1105 | inactive
cv-2 | DRSC03861 | 1.54e5 | 2.33e5 | – | 4209 | 11104 | inactive
cv-2 | DRSC04261 | 69523 | 1.14e5 | – | 1829 | 7732 | inactive
zld | DRSC19486 | 1.08e5 | 2.37e5 | – | 2600 | 9384 | inactive
eIF4H2 | DRSC14582 | 1.02e5 | 90817 | – | 2515 | 2547 | inactive
Lip1 | DRSC03364 | 91440 | 30464 | – | 2461 | 4743 | inactive
CG14881 | DRSC15005 | 60951 | 77517 | – | 1286 | 1605 | inactive
Trs33 | DRSC15990 | 47937 | 64288 | – | 1277 | 1523 | inactive
CG5906 | DRSC10557 | 48576 | 26528 | 52012 | 2620 | 3472 | inactive
CG12659 | DRSC17862 | 1.07e5 | 3.45e5 | – | 2672 | 9879 | inactive
CG3649 | DRSC04400 | 1.60e5 | 1.08e5 | – | 3573 | 8452 | inactive
CG11828 | DRSC14394 | 1.36e5 | 2.01e5 | – | 5051 | 6737 | inactive
CG46339 | DRSC14136 | 91904 | 63611 | – | 2368 | 1645 | inactive
SerT | DRSC04655 | 90528 | 61536 | – | 1776 | 5158 | inactive
CG42729 | DRSC10236 | 1.52e5 | – | – | 6120 | 4520 | inactive
CG14780 | DRSC18566 | 78293 | 1.45e5 | – | 3125 | 5456 | inactive
CG15044 | DRSC19620 | 1.42e5 | 3.83e5 | – | 2816 | 17744 | inactive
Ance-2 | DRSC02539 | 1.39e5 | 45712 | – | 3589 | 3993 | inactive
CG14257 | DRSC14752 | 1.14e5 | 1.30e5 | – | 3989 | 4064 | inactive
saturn | DRSC09303 | 2.64e5 | – | – | 6669 | – | inactive
osp | DRSC01409 | 1.27e5 | 2.41e5 | – | 3659 | 12000 | inactive
osp | DRSC03585 | 34554 | 47532 | – | 1680 | 2437 | inactive
Pde1c | DRSC02421 | 1.14e5 | 60499 | – | 2532 | 4212 | inactive
Pde1c | DRSC02422 | 96448 | 44276 | – | 2018 | 3188 | inactive
Pde1c | DRSC02423 | 1.01e5 | 41091 | – | 2281 | 3648 | inactive
Pde1c | DRSC02424 | 1.17e5 | 57008 | – | 2040 | 5656 | inactive
Pde1c | DRSC02425 | 96470 | 72555 | – | 2412 | 5623 | inactive
Pde1c | DRSC02426 | 1.33e5 | 55360 | – | 3330 | 4851 | inactive
